{"source": "the supplement of paper PMC8728848", "binders": {"B1": {"name": "Mnn9-2N3 (Aspergillus fumigatus) (protein)", "chain": "MAVARRMRRTNPITLLLAAILAIGFFIFVLSPSTTSASPVKAGSASSSSTSQQRREDNAAENPLSPPTKPFFKSQPVRHDGQQAPPPVVQYNLNQLSSTSTSAANGERILILTPMARFVPEYWDNVVKLTYPHELISIGFIIPKNKEGNAALAALEAAIAKTQSGPIDKRFASISILRQDFEPPLQSQDEKERHKISNQKARRESMSRARNSLLFTTLGPATAWVLWLDADIVETPPTLIQDLTAHDHPVLVPNCYQRYYNSEKKKMDVRPYDYNSWIDSSTAQSMAAEMGPDEILLEGYAEMPTYRTLMAHLADTANPNPKKVIELDGVGGTALMVKAEVHRDGAMFPAFPFYHLVETEGFAKMAKRLGYSVYGLPDYFVSRNFFFFFFFFFFG"}}, "assay_in_all_cases": "glycan array binding signal (z-score within array); higher = stronger binding", "conditions_in_all_cases": "glycan notation: IUPAC condensed, linker removed", "key": {"[1]": {"molecular_target": "Neu5Ac(a2-6)Gal(b1-4)GlcNAc(b1-6)GalNAc", "outline": "(§1)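 Glycan array binding is given as a within-array Z-score, which can be read as non-binding when negative. The arrays, 3228 of them, came from the Consortium for Functional Glycomics database and were retained only where the protein sequence was available. Z-scores were averaged across arrays of the same protein sequence at different concentrations or buffers and across linkers.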"}, "[2]": {"molecular_target": "Neu5Ac(a2-6)Gal(b1-4)GlcNAc(b1-6)[Gal(b1-3)GlcNAc(b1-3)]Gal(b1-4)Glc", "outline": "as §1"}, "[3]": {"molecular_target": "Neu5Ac(a2-6)Gal(b1-4)GlcNAc(b1-6)[Gal(b1-3)]GalNAc", "outline": "as §1"}, "[4]": {"molecular_target": "Neu5Ac(a2-6)Gal(b1-4)GlcNAc6S", "outline": "as §1"}, "Neu5Ac(a2-6)GalNAc": {"molecular_target": "Neu5Ac(a2-6)GalNAc", "outline": "as §1"}, "[5]": {"molecular_target": "Neu5Ac(a2-6)GalNAc(b1-4)GlcNAc", "outline": "as §1"}, "[6]": {"molecular_target": "Neu5Ac(a2-6)GalNAc(b1-4)GlcNAc6S", "outline": "as §1"}, "[7]": {"molecular_target": "Neu5Ac(a2-6)GlcNAc(b1-4)GlcNAc", "outline": "as §1"}, "[8]": {"molecular_target": "Neu5Ac(a2-6)GlcNAc(b1-4)GlcNAc(b1-4)GlcNAc", "outline": "as §1"}, "Neu5Ac(a2-8)Neu5Ac": {"molecular_target": "Neu5Ac(a2-8)Neu5Ac", "outline": "as §1"}, "[9]": {"molecular_target": "Neu5Ac(a2-8)Neu5Ac(a2-3)Gal(b1-3)GalNAc(b1-4)[Neu5Ac(a2-3)]Gal(b1-4)Glc", "outline": "as §1"}, "[10]": {"molecular_target": "Neu5Ac(a2-8)Neu5Ac(a2-3)Gal(b1-3)GalNAc(b1-4)[Neu5Ac(a2-8)Neu5Ac(a2-3)]Gal(b1-4)Glc", "outline": "as §1"}, "[11]": {"molecular_target": "Neu5Ac(a2-8)Neu5Ac(a2-3)Gal(b1-4)Glc", "outline": "as §1"}, "[12]": {"molecular_target": "Neu5Ac(a2-8)Neu5Ac(a2-3)Gal(b1-4)GlcNAc", "outline": "as §1"}, "[13]": {"molecular_target": "Neu5Ac(a2-8)Neu5Ac(a2-3)[Gal(b1-3)GalNAc(b1-4)]Gal(b1-4)Glc", "outline": "as §1"}, "[14]": {"molecular_target": "Neu5Ac(a2-8)Neu5Ac(a2-3)[GalNAc(b1-4)]Gal(b1-4)Glc", "outline": "as §1"}, "[15]": {"molecular_target": "Neu5Ac(a2-8)Neu5Ac(a2-8)Neu5Ac", "outline": "as §1"}, "[16]": {"molecular_target": "Neu5Ac(a2-8)Neu5Ac(a2-8)Neu5Ac(a2-3)Gal(b1-4)Glc", "outline": "as §1"}, "[17]": {"molecular_target": "Neu5Ac(a2-8)Neu5Ac(a2-8)Neu5Ac(a2-3)[Gal(b1-3)GalNAc(b1-4)]Gal(b1-4)Glc", "outline": "as §1"}, "[18]": {"molecular_target": "Neu5Ac(a2-8)Neu5Ac(a2-8)Neu5Ac(a2-3)[GalNAc(b1-4)]Gal(b1-4)Glc", "outline": "as §1"}, "[19]": {"molecular_target": "Neu5Ac(a2-8)Neu5Ac(a2-8)Neu5Ac(a2-8)Neu5Ac(a2-3)[GalNAc(b1-4)]Gal(b1-4)Glc", "outline": "as §1"}, "[20]": {"molecular_target": "Neu5Ac(a2-8)Neu5Gc(a2-3)Gal(b1-4)GlcNAc", "outline": "as §1"}, "[21]": {"molecular_target": "Neu5Ac(b2-6)Gal(b1-4)GlcNAc", "outline": "as §1"}, "Neu5Ac(b2-6)GalNAc": {"molecular_target": "Neu5Ac(b2-6)GalNAc", "outline": "as §1"}, "[22]": {"molecular_target": "Neu5Ac9Ac(a2-3)Gal(b1-3)GlcNAc", "outline": "as §1"}, "[23]": {"molecular_target": "Neu5Ac9Ac(a2-3)Gal(b1-4)GlcNAc", "outline": "as §1"}, "[24]": {"molecular_target": "Neu5Ac9Ac(a2-6)Gal(b1-4)GlcNAc", "outline": "as §1"}, "[25]": {"molecular_target": "Neu5Gc(a2-3)Gal(b1-3)GlcNAc", "outline": "as §1"}, "[26]": {"molecular_target": "Neu5Gc(a2-3)Gal(b1-3)[Fuc(a1-4)]GlcNAc", "outline": "as §1"}, "Neu5Gc(a2-3)Gal(b1-4)Glc": {"molecular_target": "Neu5Gc(a2-3)Gal(b1-4)Glc", "outline": "as §1"}, "[27]": {"molecular_target": "Neu5Gc(a2-3)Gal(b1-4)GlcNAc", "outline": "as §1"}, "[28]": {"molecular_target": "Neu5Gc(a2-3)Gal(b1-4)GlcNAc(b1-3)Gal(b1-4)GlcNAc(b1-2)Man(a1-3)[Neu5Gc(a2-3)Gal(b1-4)GlcNAc(b1-3)Gal(b1-4)GlcNAc(b1-2)Man(a1-6)]Man(b1-4)GlcNAc(b1-4)GlcNAc", "outline": "as §1"}, "[29]": {"molecular_target": "Neu5Gc(a2-3)Gal(b1-4)[Fuc(a1-3)]GlcNAc", "outline": "as §1"}, "[30]": {"molecular_target": "Neu5Gc(a2-6)Gal(b1-4)GlcNAc", "outline": "as §1"}, "Neu5Gc(a2-6)GalNAc": {"molecular_target": "Neu5Gc(a2-6)GalNAc", "outline": "as §1"}, "[31]": {"molecular_target": "Neu5Gc(a2-8)Neu5Ac(a2-3)Gal(b1-4)GlcNAc", "outline": "as §1"}, "[32]": {"molecular_target": "Neu5Gc(a2-8)Neu5Gc(a2-3)Gal(b1-4)GlcNAc", "outline": "as §1"}, "[33]": {"molecular_target": "Neu5Gc(a2-8)Neu5Gc(a2-3)Gal(b1-4)GlcNAc(b1-3)Gal(b1-4)GlcNAc", "outline": "as §1"}}, "note": "The list shows a part of the results."}
{"binder": "B1", "values": [{"measurement": "glycan array binding signal (z-score)", "setting": "[1]", "result": -0.882}, {"measurement": "glycan array binding signal (z-score)", "setting": "[2]", "result": -0.134}, {"measurement": "glycan array binding signal (z-score)", "setting": "[3]", "result": -0.144}, {"measurement": "glycan array binding signal (z-score)", "setting": "[4]", "result": 1.64}, {"measurement": "glycan array binding signal (z-score)", "setting": "Neu5Ac(a2-6)GalNAc", "result": 2.59}, {"measurement": "glycan array binding signal (z-score)", "setting": "[5]", "result": 2.25}, {"measurement": "glycan array binding signal (z-score)", "setting": "[6]", "result": -0.499}, {"measurement": "glycan array binding signal (z-score)", "setting": "[7]", "result": 0.317}, {"measurement": "glycan array binding signal (z-score)", "setting": "[8]", "result": 0.098}, {"measurement": "glycan array binding signal (z-score)", "setting": "Neu5Ac(a2-8)Neu5Ac", "result": -0.118}, {"measurement": "glycan array binding signal (z-score)", "setting": "[9]", "result": -2.03}, {"measurement": "glycan array binding signal (z-score)", "setting": "[10]", "result": -0.021}, {"measurement": "glycan array binding signal (z-score)", "setting": "[11]", "result": 2.12}, {"measurement": "glycan array binding signal (z-score)", "setting": "[12]", "result": 0.48}, {"measurement": "glycan array binding signal (z-score)", "setting": "[13]", "result": 0.501}, {"measurement": "glycan array binding signal (z-score)", "setting": "[14]", "result": 0.658}, {"measurement": "glycan array binding signal (z-score)", "setting": "[15]", "result": 0.367}, {"measurement": "glycan array binding signal (z-score)", "setting": "[16]", "result": 0.112}, {"measurement": "glycan array binding signal (z-score)", "setting": "[17]", "result": -0.54}, {"measurement": "glycan array binding signal (z-score)", "setting": "[18]", "result": 0.617}, {"measurement": "glycan array binding signal (z-score)", "setting": "[19]", "result": 0.676}, {"measurement": "glycan array binding signal (z-score)", "setting": "[20]", "result": 0.221}, {"measurement": "glycan array binding signal (z-score)", "setting": "[21]", "result": 0.179}, {"measurement": "glycan array binding signal (z-score)", "setting": "Neu5Ac(b2-6)GalNAc", "result": -0.289}, {"measurement": "glycan array binding signal (z-score)", "setting": "[22]", "result": 0.378}, {"measurement": "glycan array binding signal (z-score)", "setting": "[23]", "result": 0.369}, {"measurement": "glycan array binding signal (z-score)", "setting": "[24]", "result": 1.35}, {"measurement": "glycan array binding signal (z-score)", "setting": "[25]", "result": 0.304}, {"measurement": "glycan array binding signal (z-score)", "setting": "[26]", "result": -0.265}, {"measurement": "glycan array binding signal (z-score)", "setting": "Neu5Gc(a2-3)Gal(b1-4)Glc", "result": -0.055}, {"measurement": "glycan array binding signal (z-score)", "setting": "[27]", "result": 0.163}, {"measurement": "glycan array binding signal (z-score)", "setting": "[28]", "result": 1.58}, {"measurement": "glycan array binding signal (z-score)", "setting": "[29]", "result": 0.279}, {"measurement": "glycan array binding signal (z-score)", "setting": "[30]", "result": 0.416}, {"measurement": "glycan array binding signal (z-score)", "setting": "Neu5Gc(a2-6)GalNAc", "result": 0.188}, {"measurement": "glycan array binding signal (z-score)", "setting": "[31]", "result": 0.382}, {"measurement": "glycan array binding signal (z-score)", "setting": "[32]", "result": 1.21}, {"measurement": "glycan array binding signal (z-score)", "setting": "[33]", "result": 0.097}]}
